PubChem BioAssay AID264 (DTP/NCI, 2004)
The list is a part of this screen's results and no random one: it is rich in T/C values a quarter to a half above the control, in often repeated tests (any T/C) and in doses without a T/C. Other doses and runs of a compound stand elsewhere. T/C: endpoint of the treated group in % of that of the vehicle group. Schedule codes are those of the source, taken here to give the interval after Q, in days (D) or hours (H), and the number of doses after X. Some doses were run more than once; the values are given in rising order. Some T/C values carry the count of animals alive at the toxicity check (mostly the fifth day); where none is given, no animal had died by that day. Some doses have a count of surviving animals in place of a T/C: the source files T/C as zero there, which appears to mark a toxic dose or a test without result, not a measured value. Survivors were counted at the toxicity check, usually on the fifth day, unless a day is given; later deaths do not show.

Test system: nude mice, LX-1 lung xenograft intrarenal, tumor weight T/C
Assay: NCI In Vivo Anticancer Drug Screen. Data for tumor model Human Lung LX-1 Xenograft (intrarenal inoculation) in NU/NU Swiss (nude) mice
Settings: T/C endpoint: mean tumor weight change, higher T/C = larger tumour; for T/C: evaluated on day 11
Summary of the method: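 Tumor-bearing mice receive test compound or vehicle; tumor size is then measured in each group. The treated value is divided by the vehicle value to give T/C.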

[1] = dose: 300.0 mg/kg/injection, schedule: Q04DX003 (sc), vehicle: saline with Tween-80
[2] = dose: 600.0 mg/kg/injection, schedule: Q04DX003 (sc), vehicle: saline with Tween-80
[3] = dose: 2400.0 mg/kg/injection, schedule: Q04DX003 (sc), vehicle: saline with Tween-80
[4] = dose: 200.0 mg/kg/injection, schedule: Q04DX003 (sc), vehicle: Klucel (hydroxypropylcellulose) (HPC)
[5] = dose: 50.0 mg/kg/injection, schedule: Q01DX010 (sc), vehicle: saline
[6] = dose: 100.0 mg/kg/injection, schedule: Q04DX003 (sc), vehicle: saline with Tween-80
[7] = dose: 100.0 mg/kg/injection, schedule: Q04DX003 (sc), vehicle: saline
[8] = dose: 200.0 mg/kg/injection, schedule: Q04DX003 (sc), vehicle: saline

CCNC(=O)OCc1c(COC(=O)NCC)c(-c2ccc(Cl)c(Cl)c2)n2c1CCC2
T/C (dose: 12.5 mg/kg/injection, schedule: Q01DX010 (sc), vehicle: saline with Tween-80): 149 % of control [2 of 3 alive on day 11] | T/C (dose: 100.0 mg/kg/injection, schedule: Q01DX010 (sc), vehicle: saline with Tween-80): 128 % of control | survivor count (dose: 200.0 mg/kg/injection, schedule: Q01DX010 (sc), vehicle: saline with Tween-80): 0 of 3 on day 11

NC(=O)/C=C/c1c[nH]c2nccnc12
survivor count (dose: 100.0 mg/kg/injection, schedule: Q04DX003 (sc), vehicle: water): 3 of 6 on day 11 | survivor count (dose: 200.0 mg/kg/injection, schedule: Q04DX003 (sc), vehicle: water): 1 of 5 on day 11 | survivor count (dose: 400.0 mg/kg/injection, schedule: Q04DX003 (sc), vehicle: water): 3 of 6 on day 11

Clc1cc(Cl)c(C[N+]23CN4CN(CN(C4)C2)C3)cc1Cl
survivor count [1]: 3 of 6 on day 11 | survivor count [2]: 0 of 6 on day 11 | survivor count (dose: 1200.0 mg/kg/injection, schedule: Q04DX003 (sc), vehicle: saline with Tween-80): 0 of 6 on day 11 | survivor count [3]: 0 of 6 on day 11

CC(=O)N(C)C
T/C (dose: 900.0 mg/kg/injection, schedule: Q01DX010 (sc), vehicle: saline): 143 % of control | T/C (dose: 1800.0 mg/kg/injection, schedule: Q01DX010 (sc), vehicle: saline): 125 % of control | survivor count (dose: 3600.0 mg/kg/injection, schedule: Q01DX010 (sc), vehicle: saline): 1 of 3 on day 11

Nc1nc(/C=C(/O)c2ccccc2)c2ncn(C3OC(CO)C(O)C3O)c2n1 (centres undefined)
T/C (dose: 800.0 mg/kg/injection, schedule: Q04DX003 (sc), vehicle: distilled water + Tween-80): 149 % of control

C=C1C(C)C2C(Cc3ccccc3)NC(=O)C23C(OC(C)=O)C=CC(C)(O)C(=O)C(C)C/C=C/C3C1O (centres undefined)
survivor count (dose: 30.0 mg/kg/injection, schedule: Q04DX003 (sc), vehicle: Klucel (hydroxypropylcellulose) (HPC)): 3 of 6 on day 11 | survivor count (dose: 60.0 mg/kg/injection, schedule: Q04DX003 (sc), vehicle: Klucel (hydroxypropylcellulose) (HPC)): 3 of 6 on day 11

CC(=O)c1c(O)c(C)c(O)c2c1OC1=CC(=O)C(C(C)=O)C(=O)C12C (centres undefined)
survivor count (dose: 400.0 mg/kg/injection, schedule: Q01DX010 (sc), vehicle: sodium bicarbonate): 1 of 3 on day 11 | survivor count (dose: 800.0 mg/kg/injection, schedule: Q01DX010 (sc), vehicle: sodium bicarbonate): 0 of 3 on day 11

Cc1cc(NS(=O)(=O)c2ccc(N=Nc3cc(N=Nc4ccc(S(=O)(=O)Nc5cc(C)nc(C)n5)cc4)c4c(NC(=O)C(Cl)Cl)cccc4c3OC(=O)C(Cl)Cl)cc2)nc(C)n1 (tested in a mixture with another compound)
T/C (dose: 300.0 mg/kg/injection, schedule: Q04DX003 (sc), vehicle: suspension in saline): 136 % of control

O=C(Nc1cccc(Cl)c1)ON1C(=O)C2C(C1=O)C1(Cl)C(Cl)C(Cl)C2(Cl)C1(Cl)Cl (centres undefined)
survivor count [3]: 2 of 6 on day 11

COc1cccc2c1C(=O)c1c(O)c3c(c(O)c1C2=O)C[C@@](O)(C(=O)CO)C[C@@H]3OC1CC(N)C(OC)C(C)O1 (some centres undefined)
T/C (dose: 0.75 mg/kg/injection, schedule: Q01DX010 (sc), vehicle: saline): 132 % of control | survivor count (dose: 3.0 mg/kg/injection, schedule: Q01DX010 (sc), vehicle: saline): 0 of 3 on day 11 | survivor count (dose: 6.0 mg/kg/injection, schedule: Q01DX010 (sc), vehicle: saline): 0 of 3 on day 11 and 1 of 3 on day 11 | survivor count (dose: 12.0 mg/kg/injection, schedule: Q01DX010 (sc), vehicle: saline): 0 of 3 on day 11

Cn1cnc([N+](=O)[O-])c1S(=O)(=O)NCN1CCOCC1
survivor count (dose: 200.0 mg/kg/injection, schedule: Q01DX010 (sc), vehicle: Klucel (hydroxypropylcellulose) (HPC)): 0 of 3 on day 11

COc1nc(=O)n(C2C=CC(=O)O2)cc1F (centres undefined)
survivor count [4]: 0 of 6 on day 11

O=NN(CCCl)C(=O)Oc1cc(Cl)c(Cl)cc1Cl
T/C (dose: 150.0 mg/kg/injection, schedule: Q04DX003 (sc), vehicle: Klucel (hydroxypropylcellulose) (HPC)): 126 % of control [5 of 6 alive on day 11]

Cc1cc(=O)n2c3c(c4c(cc13)c(CN(C)C)cc(=O)n4C)OC2
survivor count [2]: 1 of 6 on day 11

CC(=O)NCCCCCCNC(C)=O
survivor count (dose: 6400.0 mg/kg/injection, schedule: Q01DX010 (sc), vehicle: saline): 2 of 6 on day 11

O=c1n(CC2CO2)c(=O)n(CC2CO2)c(=O)n1CC1CO1 (centres undefined)
survivor count [5]: 0 of 3 on day 11 | survivor count (dose: 100.0 mg/kg/injection, schedule: Q01DX010 (sc), vehicle: saline): 0 of 3 on day 11 | survivor count [6]: 2 of 6 on day 11 | survivor count (dose: 200.0 mg/kg/injection, schedule: Q04DX003 (sc), vehicle: saline with Tween-80): 2 of 6 on day 11

C=C(C)[C@H]1CN[C@H](C(=O)O)[C@H]1CC(=O)O
survivor count (dose: 40.0 mg/kg/injection, schedule: Q04DX003 (sc), vehicle: saline): 3 of 6 on day 11 | survivor count (dose: 80.0 mg/kg/injection, schedule: Q04DX003 (sc), vehicle: saline): 0 of 6 on day 11

CCN1/C(=C/C(C)=C/c2sc3ccc4ccccc4c3[n+]2CC)Sc2ccc3ccccc3c21
survivor count (dose: 6.0 mg/kg/injection, schedule: Q04DX003 (sc), vehicle: Klucel (hydroxypropylcellulose) (HPC)): 3 of 6 on day 11 | survivor count (dose: 12.0 mg/kg/injection, schedule: Q04DX003 (sc), vehicle: Klucel (hydroxypropylcellulose) (HPC)): 2 of 6 on day 11 | survivor count (dose: 24.0 mg/kg/injection, schedule: Q04DX003 (sc), vehicle: Klucel (hydroxypropylcellulose) (HPC)): 3 of 6 on day 11

Nc1ccc(Cl)cc1N
survivor count (dose: 1800.0 mg/kg/injection, schedule: Q04DX003 (sc), vehicle: saline with Tween-80): 0 of 6 on day 11 | survivor count (dose: 3600.0 mg/kg/injection, schedule: Q04DX003 (sc), vehicle: saline with Tween-80): 0 of 6 on day 11

CCOC(=O)Nc1cc2c(c(N)n1)N=C(CN(C)c1ccccc1)CN2
survivor count (dose: 50.0 mg/kg/injection, schedule: Q01DX010 (sc), vehicle: Klucel (hydroxypropylcellulose) (HPC)): 1 of 3 on day 11

COc1cccc2c1C(=O)c1c(O)c3c(c(O)c1C2=O)C[C@@](O)(/C(C)=N\O)C[C@@H]3OC1CC(N)C(O)C(C)O1 (some centres undefined)
survivor count [7]: 1 of 6 on day 11 | survivor count [8]: 0 of 6 on day 11

CCOC(=O)C(N)CSC(=O)NC (centres undefined)
T/C [7]: 137 % of control | T/C [8]: 128 % of control

COc1ccc(Cl)[n+]([O-])n1
survivor count [4]: 0 of 6 on day 11

CN=S(=O)(OCCCCCOS(=O)(=NC)c1ccccc1)c1ccccc1 (centres undefined)
T/C [6]: 129 % of control

O=C(O)C(O)C(O)C1[O][Sb][O]C1C(=O)O (centres undefined)
T/C (dose: 150.0 mg/kg/injection, schedule: Q04DX003 (sc), vehicle: saline): 128 % of control | survivor count (dose: 300.0 mg/kg/injection, schedule: Q04DX003 (sc), vehicle: saline): 1 of 6 on day 11

CN1CCN(CCCN2c3ccccc3Sc3ccc(C(F)(F)F)cc32)CC1
T/C [5]: 54, 66, 140, 145 % of control | survivor count (dose: 400.0 mg/kg/injection, schedule: Q01DX010 (sc), vehicle: saline): 0 of 3 on day 11

O=S(=O)(c1ccccc1)N1CN2CCN(C2)C1
T/C [1]: 134 % of control

CCCCCC1c2cc(O)ccc2OC1N1CCOCC1 (centres undefined)
T/C [1]: 128 % of control

CC(=O)OC(C)C1C2=C(C(=O)CC1(C)O)C(=O)c1c(ccc(-c3ccc4c(c3O)C(=O)C3=C(C4=O)C(C(C)OC(C)=O)C(C)(O)CC3=O)c1O)C2=O (centres undefined)
survivor count (dose: 60.0 mg/kg/injection, schedule: Q04DX003 (sc), vehicle: saline with Tween-80): 3 of 5 on day 11
